{"source": "patent US20150056630A1", "about": "“DNA CONTROLLING MIR-140 EXPRESSION, AND SCREENING METHOD OF DRUGS USING SAID DNA” (NATIONAL CENTER FOR CHILD HEALTH AND DEVELOPMENT, priority 2012, published 2015)", "key": {"L-Sox5 + Sox6 + Sox9": {"system": "L-Sox5 + Sox6 + Sox9", "experiment": "activity in cells", "conditions": "protein in cells, protein details: HA (pcDNA3-HA vectors), co-expressed in 293T"}, "Sox9": {"target": "T1, Sox9 (UniProt Q04887)", "T1 sequence (looked up, limits assumed)": "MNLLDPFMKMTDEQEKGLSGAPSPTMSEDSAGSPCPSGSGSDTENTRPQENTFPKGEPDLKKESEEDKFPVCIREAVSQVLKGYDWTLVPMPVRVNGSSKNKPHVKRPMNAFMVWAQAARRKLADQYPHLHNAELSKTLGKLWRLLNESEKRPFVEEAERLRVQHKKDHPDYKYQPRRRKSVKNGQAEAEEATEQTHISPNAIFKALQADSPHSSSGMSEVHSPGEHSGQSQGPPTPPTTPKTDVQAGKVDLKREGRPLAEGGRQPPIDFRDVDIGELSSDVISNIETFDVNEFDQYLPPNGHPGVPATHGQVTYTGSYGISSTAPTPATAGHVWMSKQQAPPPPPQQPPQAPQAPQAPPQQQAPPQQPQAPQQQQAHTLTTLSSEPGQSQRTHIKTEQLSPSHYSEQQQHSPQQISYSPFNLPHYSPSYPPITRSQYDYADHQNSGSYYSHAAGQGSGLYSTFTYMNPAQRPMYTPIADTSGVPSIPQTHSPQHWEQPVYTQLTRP", "experiment": "activity in cells", "conditions": "protein in cells, protein details: HA (pcDNA3-HA-Sox9), expressed in 293T"}, "[1]": {"conditions": "lower than 3k, variant of pGL4-miR140-3k"}, "[2]": {"conditions": "similar to 3k with Sox9 alone, variant of pGL4-miR140-3k"}}, "note": "Construct, isoform or probe ends are uncertain for at least one entry. For some of these results: A weaker result is weaker than the reference pair of the same experiment. For some of these results: Protein sequences can lack the tags named with them.", "data": [{"sequence": "CAGCTCCTCCAACTTTTCAGGCTTCCTTTGTGAAAGGGGCCCTATCCCATCAAGGAACCTATGGTTTCAAGACTTACTGTTGGAATTACTTGGAAGAGGAGCCTGTGTTGCCACCTTGGGAAGAAAGTTTCTCTGTCCCTTCAGTTGGGGGTAGCGGGAGGGCTGCAGTGGGCTTGGCTGGCAGTGGAGCACCACTGGTATTTGCACAAGGCTGGACTGAGCCCCATTCATCGTCCTGCTGCTGTGTGCGGCTCTGTCATCCCCAGATGGAGCCAGCCAGGTCTGCAGCCTGAAGTCTGCATTCAGAACTTGATCCCCTAATACGATGATTAAATTCTAGTAAGTGAAATAAAAATGCTTGAGTGGGGGAGAGAACGGAGTCAAATAATCGTCGTTTTATTTAACTATGAAAAGTTTTTGACATGCGCCCTCTGCATCCCGAAGGCTACGAGGACTCTCTCTCCATCTATTGCAGCCCTTCCCCTGGGACCTTGAGGCAATAATAGGCCGAAGGGGCAGTGTAAATGGTGACCCTGACGGCCCAAAGCCCCTTCCCCCTTCCCTTTCACCAGCCCCAGCACCAACTCCCCAGACAGGCAAACACAGAACACTGAGCAACTTGAGGTTCAGGCAGGGAAGAATAAAGGTGCTTTGTGAAGGGAAAGGAAAACATTTCTGGGGGAGGTGAGGGGCTTGGGCATGAAAGTGCCCTCAGTCTGGGTGGATGCTGCACACCCAGGAGGGAGGTGGTGGGAGGAGGGCCGGGCCCCAGCCAGGAAGCCCTGGGCGTGGGCAGGGCTTGTGGGAATGATTTCATTGGAAAGGCCTGCGGTATTTTTTCCCCTCCTGTGTGTGGTTCTTGGAGAAAGTTGGAGGTGGTGAGGATTTCAGTTGCCTTGGCCGCCGGGCGGGAGCAGGAGCTGAGCAGAGGTCGGT (double strand) [pGL4-miR140-1k]", "values": [{"measurement": "activity on this sequence", "setting": "L-Sox5 + Sox6 + Sox9; same activity as 3k, variant of pGL4-miR140-3k", "value": "active"}]}, {"sequence": "GCCACCTTGGGAAGAAAGTTTCTCTGTCCCTTCAGTTGGGGGTAGCGGGAGGGCTGCAGTGGGCTTGGCTGGCAGTGGAGCACCACTGGTATTTGCACAAGGCTGGACTGAGCCCCATTCATCGTCCTGCTGCTGTGTGCGGCTCTGTCATCCCCAGATGGAGCCAGCCAGGTCTGCAGCCTGAAGTCTGCATTCAGAACTTGATCCCCTAATACGATGATTAAATTCTAGTAAGTGAAATAAAAATGCTTGAGTGGGGGAGAGAACGGAGTCAAATAATCGTCGTTTTATTTAACTATGAAAAGTTTTTGACATGCGCCCTCTGCATCCCGAAGGCTACGAGGACTCTCTCTCCATCTATTGCAGCCCTTCCCCTGGGACCTTGAGGCAATAATAGGCCGAAGGGGCAGTGTAAATGGTGACCCTGACGGCCCAAAGCCCCTTCCCCCTTCCCTTTCACCAGCCCCAGCACCAACTCCCCAGACAGGCAAACACAGAACACTGAGCAACTTGAGGTTCAGGCAGGGAAGAATAAAGGTGCTTTGTGAAGGGAAAGGAAAACATTTCTGGGGGAGGTGAGGGGCTTGGGCATGAAAGTGCCCTCAGTCTGGGTGGATGCTGCACACCCAGGAGGGAGGTGGTGGGAGGAGGGCCGGGCCCCAGCCAGGAAGCCCTGGGCGTGGGCAGGGCTTGTGGGAATGATTTCATTGGAAAGGCCTGCGGTATTTTTTCCCCTCCTGTGTGTGGTTCTTGGAGAAAGTTGGAGGTGGTGAGGATTTCAGTTGCCTTGGCCGCCGGGCGGGAGCAGGAGCTGAGCAGAGGTCGGT (double strand) [pGL4-miR140-0.8k]", "values": [{"measurement": "activity on this sequence", "setting": "L-Sox5 + Sox6 + Sox9; [1]", "value": "less active"}, {"measurement": "activity on this sequence", "setting": "Sox9; [2]", "value": "active"}]}, {"sequence": "GTATTTGCACAAGGCTGGACTGAGCCCCATTCATCGTCCTGCTGCTGTGTGCGGCTCTGTCATCCCCAGATGGAGCCAGCCAGGTCTGCAGCCTGAAGTCTGCATTCAGAACTTGATCCCCTAATACGATGATTAAATTCTAGTAAGTGAAATAAAAATGCTTGAGTGGGGGAGAGAACGGAGTCAAATAATCGTCGTTTTATTTAACTATGAAAAGTTTTTGACATGCGCCCTCTGCATCCCGAAGGCTACGAGGACTCTCTCTCCATCTATTGCAGCCCTTCCCCTGGGACCTTGAGGCAATAATAGGCCGAAGGGGCAGTGTAAATGGTGACCCTGACGGCCCAAAGCCCCTTCCCCCTTCCCTTTCACCAGCCCCAGCACCAACTCCCCAGACAGGCAAACACAGAACACTGAGCAACTTGAGGTTCAGGCAGGGAAGAATAAAGGTGCTTTGTGAAGGGAAAGGAAAACATTTCTGGGGGAGGTGAGGGGCTTGGGCATGAAAGTGCCCTCAGTCTGGGTGGATGCTGCACACCCAGGAGGGAGGTGGTGGGAGGAGGGCCGGGCCCCAGCCAGGAAGCCCTGGGCGTGGGCAGGGCTTGTGGGAATGATTTCATTGGAAAGGCCTGCGGTATTTTTTCCCCTCCTGTGTGTGGTTCTTGGAGAAAGTTGGAGGTGGTGAGGATTTCAGTTGCCTTGGCCGCCGGGCGGGAGCAGGAGCTGAGCAGAGGTCGGT (double strand) [pGL4-miR140-0.7k]", "values": [{"measurement": "activity on this sequence", "setting": "L-Sox5 + Sox6 + Sox9; [1]", "value": "less active"}, {"measurement": "activity on this sequence", "setting": "Sox9; [2]", "value": "active"}]}, {"sequence": "GTTTTCTCAAGCCGACACTGAGCCCCATTCATCCTCCTGCCCATGTGTGGCTCCGGCACCCCTAGACGGGGCCAGCCCAGCAGCCTGAAGTCCGCATTTAGAACTTGATCCCCTCTTATAACGATTAAATTTTAGTAAGTAAAATAAAAATGCTTCAGAAAGAAAAAAAAGAAAGGAAGAAAGAGTGGAACAATACTTGTTTTATTTAACGACCAGAACTTTTTGACAACACCCCCCTTCCCCGCAGGATATGAGAATGCCTGGTCCACTGCAGTCCATCCCCAGGGACCTCGAAGCAGAATTTGGCTGGAGGGGGTGCGGGGGGGATTCTAATGTAAACAGTGACCCTGAAGCCCTGGAGCCAGTTCCCCCTTCTTTCCCCTGTCTCCCCTTCTGTCTTGCTGCCCCACCCCCAGCCCCAACACCCCCCACCCCCCCCACCCCCACCCCGAGACAAACACAGAACACTGAGCAACTTCAGGTTCAGGCAGGGGAGGAATAAAGGTGCTTTGTAAAGGGGAAGGAAAACATTCCTGGGGGAGGTGAGGGCTTGGGGCATGAATGTGCCCTCAGTCTGGGTGGACGCTGCACACCCAGATGGGAGGTTGGGGGGGACGCCGAGGTGGAGGGAGGAGGGCCGGGCCCCAGCCAGGAAGCTCTGGGCGTGGGCAGGGCTTGTGGGAATGATTTCATTGGAAAGGCCTGCGATATTTTTTCCCCTCCTGCGTGTGGTTCTTGGAGAAAGTTGGAGGTGGTGGTGATTTCAGTCGCCTTGGCCGCCTTGAGCCGGAGCTGAGCGGAGGCACT (double strand) [pGL4-hgmiR140-0.7k]", "values": [{"measurement": "activity on this sequence", "setting": "L-Sox5 + Sox6 + Sox9; further potentiated by L-Sox5 and/or Sox6, variant of pGL4-hgmiR140-3k", "value": "active"}, {"measurement": "activity on this sequence", "setting": "Sox9; luciferase increased by Sox9, variant of pGL4-hgmiR140-3k", "value": "active"}]}]}
